PubChem BioAssay AID1259314 – Drosophila RNAi Screening Center, 2017
This is a random part of about 3,100 reagents. 289 of them (9.3%) count as active. 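Active includes both higher and lower ATP than plate average; check the z-score sign for direction.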 Names joined by + are all predicted targets of the reagent. No sequences are given here. The record does not give: the amount of reagent.

Screen: 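Transmembrane protein genes affecting ATP after manganese overload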 (primary screen)
System: Drosophila S2R+ cells
Reagent: long dsRNA against Drosophila genes
Timing: 5 days (4 days knock-down, then 1 day metal exposure)
Treatment: manganese chloride added to 15 mM for 24 hours
Measurement: 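Luciferase ATP signal used as a proxy for viable cell number, reported as one averaged z-score per dsRNA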
Reading the numbers: mean ATP z-score: higher = more ATP than the plate average, more viable cells under manganese
Rule for the call: 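a mean ATP z-score past 1.5 in either direction is called active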
Calls: active = strong ATP change, up or down; inactive = no strong ATP change

gene,PubChem SID,mean ATP z-score,call
Ca-alpha1D (Ca[2+]-channel protein alpha[[1]] subunit D),SID104183076,-0.29,inactive
Ca-alpha1D (Ca[2+]-channel protein alpha[[1]] subunit D),SID104217254,-0.106,inactive
OtopLc (Otopetrin-like c),SID104197924,-0.256,inactive
OtopLc (Otopetrin-like c),SID104204300,-0.532,inactive
Hacd2 (3-hydroxyacyl-CoA dehydratase 2),SID104182973,-1,inactive
PGRP-LD + Pmi,SID104190304,1.17,inactive
trpl (transient receptor potential-like),SID104186520,-0.549,inactive
trpl (transient receptor potential-like),SID104204031,0.903,inactive
loj (logjam),SID104189583,1.52,active
loj (logjam),SID104217441,2.38,active
bib (big brain),SID104183288,-1.01,inactive
Mpv17 (Mitochondrial inner membrane protein MPV17),SID104196990,-0.398,inactive
Mdr49 (Multi drug resistance 49),SID104187258,-0.791,inactive
Mdr49 (Multi drug resistance 49),SID104203014,0.878,inactive
Inx6 (Innexin 6),SID104200371,0.304,inactive
Inx6 (Innexin 6),SID104204843,-0.635,inactive
CG7573,SID104190676,0.349,inactive
PGAP2 (Post-GPI attachment to proteins 2),SID104180424,0.186,inactive
PGAP2 (Post-GPI attachment to proteins 2),SID104207040,-0.463,inactive
CG17751,SID104202196,1.44,inactive
CG17751,SID104203230,0.772,inactive
Dolk (Dolichol kinase),SID104186935,-0.462,inactive
Dolk (Dolichol kinase),SID104217153,0.548,inactive
CG13801,SID104188127,-0.68,inactive
"Sr-CIII (Scavenger receptor class C, type III)",SID104201784,-1.95,active
CG33234,SID104187786,0.643,inactive
CG33234,SID104217332,0.695,inactive
CG13887,SID104188149,-0.205,inactive

Sorted by “mean ATP z-score” (lowest first): 6 of the entries above
gene,PubChem SID,mean ATP z-score,call
bib (big brain),SID104183288,-1.01,inactive
Mdr49 (Multi drug resistance 49),SID104187258,-0.791,inactive
Mpv17 (Mitochondrial inner membrane protein MPV17),SID104196990,-0.398,inactive
Inx6 (Innexin 6),SID104200371,0.304,inactive
Mdr49 (Multi drug resistance 49),SID104203014,0.878,inactive
loj (logjam),SID104217441,2.38,active

The list goes on:
gene,PubChem SID,mean ATP z-score,call
Or85c (Odorant receptor 85c),SID104196558,-0.346,inactive
Or85c (Odorant receptor 85c),SID104217408,-0.899,inactive
Ca-alpha1T (Ca[2+]-channel protein alpha[[1]] subunit T),SID104197634,0.69,inactive
Ca-alpha1T (Ca[2+]-channel protein alpha[[1]] subunit T),SID104198149,0.221,inactive
Ca-alpha1T (Ca[2+]-channel protein alpha[[1]] subunit T),SID104201177,1.2,inactive
mge (maggie),SID104188513,-2,active
GABPI (beta4GalNAcTB pilot),SID104180286,0.454,inactive
GABPI (beta4GalNAcTB pilot),SID104206039,-0.648,inactive
CG9240,SID104199969,0.115,inactive
Or71a (Odorant receptor 71a),SID104191036,-0.783,inactive
Or71a (Odorant receptor 71a),SID104217141,0.614,inactive
Nemp (Nuclear envelope integral membrane protein),SID104199998,-2.04,active
Nemp (Nuclear envelope integral membrane protein),SID104205507,-1.55,active
CCHa2-R (CCHamide-2 receptor),SID104184662,0.692,inactive
CCHa2-R (CCHamide-2 receptor),SID104184663,0.102,inactive
uzip (unzipped),SID104184514,-0.702,inactive
uzip (unzipped),SID104208589,-0.716,inactive
